# Laboratory results reported in PubChem BioAssay AID2685 (National Center for Advancing Translational Sciences (NCATS), 2010).
# This is one part of the list. Shown are side measurements of this screen, not its main read-out; they come without a call. Most of these compounds were active or inconclusive in the main read-out, so they are no random draw. Words in brackets tell the shape of the fitted curve; partial curves, single points and poor fits give uncertain potencies.
# Test: qHTS Assay for Lipid Storage Modulators in Drosophila S3 Cells;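 as to cell number change: cells counted by Cell Tracker Red CMTPX staining in the red channel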
# Details: BODIPY lipid droplet fluorescence, 18-24 h; for cell number change: measured here: cell count max response, cells fed with added oleic acid
# How it was run: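 Laser-scanning cytometry quantifies lipid droplet accumulation (500–530 nm total intensity; droplet/cell object ratio) in oleic acid-fed (400 uM added) Drosophila S3 cells treated with a concentration series. 20 uM Triacsin C defined 100% inhibition.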
# [1] = measured here: cell number channel AC50, cells fed with added oleic acid
# [2] = measured here: lipid fluorescence (Fed channel) AC50, cells fed with added oleic acid
Compound,cell number change [%],AC50 [1],AC50 [2]
CC1CN(CCc2ccccc2)c2nc3c(c(=O)n(C)c(=O)n3C)n2C1 (stereo not drawn),-17.1,"6.51 µM [falling, single point]",–
Cn1cc(Cl)c(C(=O)OCC(=O)Nc2ccccc2)n1,87.2,–,"6.51 µM [rising, single point]"
CSc1ccc(S(=O)(=O)N2CCC(C(=O)NC3CC3)CC2)cc1,15.8,–,"5.62 µM [falling, single point]"
Cc1[nH]c2ccccc2c1C(=O)CN1C(=O)NC2(CCCCCC2)C1=O,-7.98,–,"3.66 µM [rising, single point]"
Cc1ccc(NC(=O)COCC(=O)Nc2ccc(F)cc2)cc1,-4.12,–,"23.1 µM [falling, single point]"
COc1ccc(C(=O)Nc2ccc(S(=O)(=O)NC(C)=O)cc2)cc1[N+](=O)[O-],-34.9,–,–
CCC(c1nnc(SC(C)C(=O)NC2CC2)n1-c1ccc(OC)cc1)N(C)C (stereo not drawn),-2.13,–,"0.82 µM [falling, full curve, poor fit]"
CCN(CC)CCCNC(=O)c1ccc(C)c(NC(=O)C2=C(C)OCCS2)c1,33.8,"0.00461 µM [rising, full curve, poor fit]",–
CCn1cc(C(=O)NC(C)CCc2ccccc2)c(=O)c2cc(S(=O)(=O)N(C)C)ccc21 (stereo not drawn),-8.33,"6.51 µM [falling, single point]",–
CC(C(=O)N1CCN(Cc2ccc3c(c2)OCO3)CC1)c1ccc([N+](=O)[O-])cc1 (stereo not drawn),33.6,"6.51 µM [rising, full curve, poor fit]","5.17 µM [rising, partial curve]"
CC(C)C1C(C#N)=C(N)SC(N)=C1C#N,-11.2,–,"0.00411 µM [rising, full curve, poor fit]"
COCC(=O)Nc1ccccc1C#N,3.62,–,"3.26 µM [falling, single point]"
COc1cc(NC(C)C(=O)N2CC(C)OC(C)C2)cc(OC)c1 (stereo not drawn),–,"2.31 µM [rising, partial curve, poor fit]",–
Cc1cc(C)c(NC(=O)CSc2ccc(-c3ccccn3)nn2)c(C)c1,28.2,–,"18.4 µM [rising, single point]"
COc1ccc(/C=C2\SC(=O)N(CC(=O)Nc3cccc(C)c3)C2=O)cc1O,12.1,"1.84 µM [falling, partial curve, poor fit]",–
Cc1nc(C)c(C(=O)N2CCCC(C(=O)c3ccc(Cl)cc3C)C2)s1 (stereo not drawn),5.61,–,"18.4 µM [rising, single point]"
Cc1ccccc1CNC(=O)CCc1ccccc1,28.3,–,"25.9 µM [rising, single point]"
CCN(CC(=O)N1CCOCC1)S(=O)(=O)c1ccc(Cl)cc1,–,–,"3.26 µM [falling, single point]"
CC(C)(C)C(=O)CSc1nccc(=O)[nH]1,-6.58,–,"6.51 µM [falling, partial curve, poor fit]"
O=C(O)C(c1ccccc1)N1C(=O)/C(=C\c2ccc(-c3ccccc3Cl)o2)SC1=S (stereo not drawn),-55.9,"11.6 µM [falling, partial curve, poor fit]",–
COc1ccc(Nc2nc(-c3cccnc3)cs2)c(OC)c1,-18.6,–,–

# In a second layout: results already given
Compound | cell number change [%] | AC50 [1] | AC50 [2]
CCN(CC)CCCNC(=O)c1ccc(C)c(NC(=O)C2=C(C)OCCS2)c1 | 33.8 | 0.00461 µM [rising, full curve, poor fit] | –
CCn1cc(C(=O)NC(C)CCc2ccccc2)c(=O)c2cc(S(=O)(=O)N(C)C)ccc21 (stereo not drawn) | -8.33 | 6.51 µM [falling, single point] | –

# Next records:

Compound,cell number change [%],AC50 [1],AC50 [2]
CN(Cc1ccccc1)C(=O)COc1cc(Cl)ccc1Cl,–,–,"32.6 µM [rising, partial curve]"
Cc1cc(C)n(-c2ccc(NC(=O)C3CCCCN3C(=O)c3ccc(C)s3)cc2)n1 (stereo not drawn),11.4,–,–
Cc1ccc(OCCn2c(C)c(/C=N/n3cnnc3)c3ccccc32)cc1,-55.5,"29.1 µM [falling, single point]","29.1 µM [falling, single point]"
COc1ccc(OCC(=O)c2c(O)c3ccccc3oc2=O)cc1,6.34,–,–
CSc1ncccc1C(=O)NCC(c1cccs1)N1CCOCC1 (stereo not drawn),0.402,–,–
O=C(CCn1c(=O)oc2ccccc21)NCCC1=CCCCC1,–,–,"0.0366 µM [falling, full curve, poor fit]"
CC(C)(CNC(=O)c1ccc(S(=O)(=O)Nc2ccccc2F)cc1)N1CCOCC1,24.1,–,–
Cc1cc(C)n2nc(C(=O)OCC(=O)N(C)C3CCS(=O)(=O)C3)nc2n1 (stereo not drawn),2.89,–,"0.0231 µM [rising, full curve, poor fit]"
CCC1(CC)Cc2ccccc2-c2nc(NCCCO)[nH]c(=O)c21,-18.1,–,"4.11 µM [falling, full curve, poor fit]"
COc1ccc(CNC(=O)N2CCN(c3ccccc3)CC2)cc1,8.11,–,"29.1 µM [falling, single point]"
O=C(NC1CCCCC1)C(c1ccc(Cl)cc1)N(C(=O)c1cnccn1)c1ccc2c(c1)OCO2 (stereo not drawn),–,"1.64 µM [rising, partial curve]",–
CCCc1cc2c(cc1NC(=O)c1ccccc1Cl)OCO2,-1.56,–,–
COc1ccc2nc(SCC(=O)NCc3ccccc3)[nH]c2c1,-37.9,"20.6 µM [falling, partial curve]",–
CCCN1CC(=O)N2C(c3ccccc3)c3[nH]c4ccccc4c3C[C@H]2C1=O (stereo partly drawn),29.1,–,"29.1 µM [rising, single point]"
COc1ccc(NC(=O)/C(C#N)=C\c2ccc(-c3cccc(C(=O)O)c3C)o2)cc1,-7.37,–,–
CCOC(=O)C1=C(C)N=C2SC(C)C(=O)N2C1c1ccc(OC(C)=O)c(OC)c1 (stereo not drawn),27.2,–,–
Cc1nc2ccn(Cc3ccccc3)c(=O)c2cc1C(=O)N1CCN(c2ccc(F)cc2)CC1,8.96,–,"5.8 µM [rising, full curve, poor fit]"
c1ccc2sc(Sc3ncnc4sccc34)nc2c1,-19.8,–,"18.4 µM [falling, single point]"
O=C(NCCCN1CCOCC1)c1cc2ccccc2oc1=O,0.234,–,"0.103 µM [falling, full curve, poor fit]"
N#Cc1ccccc1Sc1ccccc1C(=O)NCC(c1ccco1)N1CCCCC1 (stereo not drawn),-22.9,–,"16.4 µM [falling, single point]"
CCN(CC)CCN(Cc1cc2cc3c(cc2[nH]c1=O)OCO3)C(=S)NCCOC,3.52,–,"4.11 µM [rising, partial curve]"

Compound,cell number change [%],AC50 [1],AC50 [2]
Cn1nnc2cc(C(=O)NC(C)(C)C)ccc21,-45.4,"29.1 µM [falling, single point]","0.58 µM [falling, single point]"
COc1ccc(NC2CCCN(C(=O)c3cccc(N(C)C)c3)C2)cc1 (stereo not drawn),–,–,"0.651 µM [rising, full curve, poor fit]"
Cc1cccc(OCC2=N/C(=C\N(C)C)C(=O)O2)c1,-18.6,–,"0.411 µM [rising, full curve, poor fit]"
Cc1ccc(NC(=O)Cc2ncc(C(F)(F)F)cc2Cl)cc1Cl,-11.4,"6.51 µM [falling, single point]",–
Cc1c(NC(=O)c2cnn3c(C(F)(F)F)cc(-c4ccco4)nc23)c(=O)n(-c2ccccc2)n1C,–,–,"6.51 µM [rising, single point]"
COc1ccccc1N1CCN(C(=O)Cn2c(=O)[nH]c3ccsc3c2=O)CC1,-16.5,–,"0.92 µM [rising, full curve, poor fit]"
CCN1CC(C)C(O)(c2ccccc2)CC1C (stereo not drawn),-31.1,"0.206 µM [falling, full curve]","23.1 µM [falling, partial curve]"
CCOC(=O)c1nnc(-c2ccc(C)cc2)nc1Sc1ccc(Cl)cc1,-10.1,"0.146 µM [falling, full curve, poor fit]","2.06 µM [falling, partial curve]"
CC1CCCC(NC(=O)Cn2cc([N+](=O)[O-])ccc2=O)C1C (stereo not drawn),-13.3,–,"6.51 µM [rising, single point]"
O=S(=O)(c1ccc(N2CC=C(c3ccccc3)CC2)nc1)N1CCCC1,-5.82,–,"29.1 µM [rising, single point]"
CCN(CC(=O)Nc1ccc(C(C)=O)cc1)CC(=O)Nc1cccc(OC)c1,117,–,"18.4 µM [rising, single point]"
CCN(c1ccccc1)S(=O)(=O)c1ccc(C(=O)NCCCn2ccnc2)cc1,49.6,"0.82 µM [rising, full curve]","1.64 µM [rising, full curve]"
CN(NC(=O)CN1C(=O)c2ccccc2C1=O)C1=NS(=O)(=O)c2ccccc21,-28.7,–,"29.1 µM [falling, single point]"
COc1ccc(-n2nc(C(=O)NCC(=O)N3CCCCC3)c3ccccc3c2=O)c(OC)c1,-17.5,–,"32.6 µM [falling, single point]"
CCCc1nnc(SCC(=O)Nc2cccc(Cl)c2Cl)o1,-14.5,"5.8 µM [rising, partial curve]",–
CCOC(=O)N1CCN(C(=O)COC(=O)c2ccccc2NCCO)CC1,–,"6.51 µM [rising, single point]",–
CCCOC(=O)c1ccc(NC(=O)c2cc(Cl)ccc2OC)cc1,3.95,"1.84 µM [rising, partial curve]","0.58 µM [rising, full curve, poor fit]"
Cc1ccccc1C(=O)Nc1ccnn1C1CCN(Cc2cnn(C)c2)CC1,6.68,–,–
O=C1COC(c2ccccc2)=CN1Cc1ccccc1,-13.6,–,"23.1 µM [falling, single point]"
CS(=O)(=O)N1CCN(c2ccccc2NC(=O)c2ccco2)CC1,-15,–,"32.6 µM [falling, single point]"
